PubChem BioAssay AID1224830 – NIAID – 2016
Test: 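Genes whose knock-down alters the TNF-alpha reporter response to LPS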 (primary screen). Cell system: human THP-1 monocytic leukaemia cells, TNF dual-luciferase reporter clone, PMA-differentiated to macrophage-like cells. Reagents: siRNA pool against human genes, 50 nM. Duration: LPS for 4 h, given about 3 days after siRNA transfection. Challenge: bacterial LPS (TLR4 ligand), 10 ng/ml. Measurement: 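TNF firefly reporter luminescence divided by renilla, normalised to the plate median, then turned into a robust z-score for each replicate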. Scale: TNF reporter robust z-score: higher = stronger TNF reporter response to LPS. Hit rule: 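Each well counts as active if its z-score is over 2.8 or under -1.5; controls are left without a call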.
The deposit covers about 18,000 reagents; below is a random part of them. Over the whole deposit, about 2,900 (16%) are marked active. 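Calls are made per well; low scores hint the gene aids the LPS response, high scores that it dampens it.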 Entries without a mark were called inactive. Repeated entries: four replicate wells of each siRNA pool.

TNF reporter robust z-score | gene symbol
0.67 | SLC18A1
0.34 | SLC18A1
0.17 | SLC18A1
1.9 | SLC18A1
-0.92 | ESX1 (ESX homeobox 1)
-0.75 | ESX1 (ESX homeobox 1)
-1.28 | ESX1 (ESX homeobox 1)
-0.37 | ESX1 (ESX homeobox 1)
-0.48 | GHDC (GH3 domain containing)
-0.21 | GHDC (GH3 domain containing)
-1.37 | GHDC (GH3 domain containing)
-0.08 | GHDC (GH3 domain containing)
1 | AP2B1 (adaptor related protein complex 2 subunit beta 1)
1.33 | AP2B1 (adaptor related protein complex 2 subunit beta 1)
1.29 | AP2B1 (adaptor related protein complex 2 subunit beta 1)
1.23 | AP2B1 (adaptor related protein complex 2 subunit beta 1)
0.54 | CEND1 (cell cycle exit and neuronal differentiation 1)
0.18 | CEND1 (cell cycle exit and neuronal differentiation 1)
1.43 | CEND1 (cell cycle exit and neuronal differentiation 1)
0.39 | CEND1 (cell cycle exit and neuronal differentiation 1)
0.59 | C11orf87 (chromosome 11 open reading frame 87)
0.7 | C11orf87 (chromosome 11 open reading frame 87)
0.25 | C11orf87 (chromosome 11 open reading frame 87)
0.93 | C11orf87 (chromosome 11 open reading frame 87)
-1.49 | RAD51 (RAD51 recombinase)
-1.69 (active) | RAD51 (RAD51 recombinase)
-1.48 | RAD51 (RAD51 recombinase)
-0.95 | RAD51 (RAD51 recombinase)
0.26 | NYX (nyctalopin)
-0.33 | NYX (nyctalopin)
-0.1 | NYX (nyctalopin)
-0.89 | ALOX5 (arachidonate 5-lipoxygenase)
-0.29 | ALOX5 (arachidonate 5-lipoxygenase)
-0.78 | ALOX5 (arachidonate 5-lipoxygenase)
-0.1 | ALOX5 (arachidonate 5-lipoxygenase)
-0.17 | SLC4A9
1.49 | SLC4A9
-0.78 | SLC4A9
-0.58 | SLC4A9
-1.18 | FZD7 (frizzled class receptor 7)
0.08 | FZD7 (frizzled class receptor 7)
-0.26 | FZD7 (frizzled class receptor 7)
1.06 | FZD7 (frizzled class receptor 7)
-0.87 | GJB4 (gap junction protein beta 4)
-0.24 | GJB4 (gap junction protein beta 4)
0.57 | GJB4 (gap junction protein beta 4)
-0.66 | GJB4 (gap junction protein beta 4)
0.58 | EIF1AD
2.81 (active) | EIF1AD
1.18 | EIF1AD
2.8 (active) | EIF1AD
-0.22 | CCSAP (centriole, cilia and spindle associated protein)
-0.04 | CCSAP (centriole, cilia and spindle associated protein)
0.04 | CCSAP (centriole, cilia and spindle associated protein)
-0.16 | CCSAP (centriole, cilia and spindle associated protein)
-0.98 | FGD3 (FYVE, RhoGEF and PH domain containing 3)
-0.47 | FGD3 (FYVE, RhoGEF and PH domain containing 3)
-0.55 | FGD3 (FYVE, RhoGEF and PH domain containing 3)
-0.46 | FGD3 (FYVE, RhoGEF and PH domain containing 3)
0.09 | ATP2B2 (ATPase plasma membrane Ca2+ transporting 2)
-0.05 | ATP2B2 (ATPase plasma membrane Ca2+ transporting 2)
0.57 | ATP2B2 (ATPase plasma membrane Ca2+ transporting 2)
2.35 | ATP2B2 (ATPase plasma membrane Ca2+ transporting 2)
-0.9 | ETV3L (ETS variant transcription factor 3 like)
-1.15 | ETV3L (ETS variant transcription factor 3 like)
-1.23 | ETV3L (ETS variant transcription factor 3 like)
-0.47 | ETV3L (ETS variant transcription factor 3 like)
1.13 | ACSM5 (acyl-CoA synthetase medium chain family member 5)
-0.99 | ACSM5 (acyl-CoA synthetase medium chain family member 5)
-0.25 | ACSM5 (acyl-CoA synthetase medium chain family member 5)
-0.17 | ACSM5 (acyl-CoA synthetase medium chain family member 5)
-1.37 | NCR3 (natural cytotoxicity triggering receptor 3)
-0.41 | NCR3 (natural cytotoxicity triggering receptor 3)
-2.15 (active) | NCR3 (natural cytotoxicity triggering receptor 3)
-1.14 | NCR3 (natural cytotoxicity triggering receptor 3)
0.64 | PHYHIPL (phytanoyl-CoA 2-hydroxylase interacting protein like)
0.76 | PHYHIPL (phytanoyl-CoA 2-hydroxylase interacting protein like)
0.7 | PHYHIPL (phytanoyl-CoA 2-hydroxylase interacting protein like)
1.51 | PHYHIPL (phytanoyl-CoA 2-hydroxylase interacting protein like)
-0.27 | C6orf47 (chromosome 6 open reading frame 47)
0.8 | C6orf47 (chromosome 6 open reading frame 47)
0.4 | C6orf47 (chromosome 6 open reading frame 47)
-0.64 | C6orf47 (chromosome 6 open reading frame 47)
-0.79 | PLEKHH2 (pleckstrin homology, MyTH4 and FERM domain containing H2)
-1.32 | PLEKHH2 (pleckstrin homology, MyTH4 and FERM domain containing H2)
0.08 | PLEKHH2 (pleckstrin homology, MyTH4 and FERM domain containing H2)
0.41 | PLEKHH2 (pleckstrin homology, MyTH4 and FERM domain containing H2)
3.84 (active) | ZNF180 (zinc finger protein 180)
2.81 (active) | ZNF180 (zinc finger protein 180)
3.4 (active) | ZNF180 (zinc finger protein 180)
0.85 | ZNF180 (zinc finger protein 180)
-0.4 | GFRA4 (GDNF family receptor alpha 4)
-0.66 | GFRA4 (GDNF family receptor alpha 4)
-0.79 | GFRA4 (GDNF family receptor alpha 4)
-1.26 | GFRA4 (GDNF family receptor alpha 4)
-1.11 | SLC26A11
-0.65 | SLC26A11
-0.78 | SLC26A11
-0.84 | SLC26A11
1 | NKIRAS2 (NFKB inhibitor interacting Ras like 2)
-0.83 | NKIRAS2 (NFKB inhibitor interacting Ras like 2)
-1.01 | NKIRAS2 (NFKB inhibitor interacting Ras like 2)
-0.71 | NKIRAS2 (NFKB inhibitor interacting Ras like 2)
-0.53 | DENND1A (DENN domain containing 1A)
-0.22 | DENND1A (DENN domain containing 1A)
-0.29 | DENND1A (DENN domain containing 1A)
-0.42 | DENND1A (DENN domain containing 1A)
-0.96 | CFAP263 (cilia and flagella associated protein 263)
-0.37 | CFAP263 (cilia and flagella associated protein 263)
0.19 | CFAP263 (cilia and flagella associated protein 263)
0.05 | CFAP263 (cilia and flagella associated protein 263)
1.37 | OTOS (otospiralin)
2.58 | OTOS (otospiralin)
1.45 | OTOS (otospiralin)
1.6 | OTOS (otospiralin)
-0.47 | MBNL2 (muscleblind like splicing regulator 2)
-0.34 | MBNL2 (muscleblind like splicing regulator 2)
-1.14 | MBNL2 (muscleblind like splicing regulator 2)
-1.37 | MBNL2 (muscleblind like splicing regulator 2)
0.02 | PCDHA7 (protocadherin alpha 7)
-0.02 | PCDHA7 (protocadherin alpha 7)
0.32 | PCDHA7 (protocadherin alpha 7)
0.68 | PCDHA7 (protocadherin alpha 7)
-0.37 | GEN1 (GEN1 structure-specific endonuclease)
-0.3 | GEN1 (GEN1 structure-specific endonuclease)
-0.93 | GEN1 (GEN1 structure-specific endonuclease)
0.07 | GEN1 (GEN1 structure-specific endonuclease)
-0.25 | GRIK3 (glutamate ionotropic receptor kainate type subunit 3)
1.48 | GRIK3 (glutamate ionotropic receptor kainate type subunit 3)
-0.77 | GRIK3 (glutamate ionotropic receptor kainate type subunit 3)
-0.26 | GRIK3 (glutamate ionotropic receptor kainate type subunit 3)
0.05 | PARP8 (poly(ADP-ribose) polymerase family member 8)
0.53 | PARP8 (poly(ADP-ribose) polymerase family member 8)
0.84 | PARP8 (poly(ADP-ribose) polymerase family member 8)
1.5 | PARP8 (poly(ADP-ribose) polymerase family member 8)
1.08 | ARHGEF11 (Rho guanine nucleotide exchange factor 11)
0.68 | ARHGEF11 (Rho guanine nucleotide exchange factor 11)
1.16 | ARHGEF11 (Rho guanine nucleotide exchange factor 11)
1.04 | ARHGEF11 (Rho guanine nucleotide exchange factor 11)
1.36 | SPATA2L (spermatogenesis associated 2 like)
0.35 | SPATA2L (spermatogenesis associated 2 like)
0.78 | SPATA2L (spermatogenesis associated 2 like)
0.92 | SPATA2L (spermatogenesis associated 2 like)
